Test results published in patent WO2019131769A1 (dated 2019).
These are yes or no findings as the source states them, for the method shown. Some binding calls cover weakened binding; strength is not graded here.

Amino acid sequences for entries named in this document (tags omitted). A change or cut given only in a name is not applied to a line headed by its entry.
UniProt Q9UM07: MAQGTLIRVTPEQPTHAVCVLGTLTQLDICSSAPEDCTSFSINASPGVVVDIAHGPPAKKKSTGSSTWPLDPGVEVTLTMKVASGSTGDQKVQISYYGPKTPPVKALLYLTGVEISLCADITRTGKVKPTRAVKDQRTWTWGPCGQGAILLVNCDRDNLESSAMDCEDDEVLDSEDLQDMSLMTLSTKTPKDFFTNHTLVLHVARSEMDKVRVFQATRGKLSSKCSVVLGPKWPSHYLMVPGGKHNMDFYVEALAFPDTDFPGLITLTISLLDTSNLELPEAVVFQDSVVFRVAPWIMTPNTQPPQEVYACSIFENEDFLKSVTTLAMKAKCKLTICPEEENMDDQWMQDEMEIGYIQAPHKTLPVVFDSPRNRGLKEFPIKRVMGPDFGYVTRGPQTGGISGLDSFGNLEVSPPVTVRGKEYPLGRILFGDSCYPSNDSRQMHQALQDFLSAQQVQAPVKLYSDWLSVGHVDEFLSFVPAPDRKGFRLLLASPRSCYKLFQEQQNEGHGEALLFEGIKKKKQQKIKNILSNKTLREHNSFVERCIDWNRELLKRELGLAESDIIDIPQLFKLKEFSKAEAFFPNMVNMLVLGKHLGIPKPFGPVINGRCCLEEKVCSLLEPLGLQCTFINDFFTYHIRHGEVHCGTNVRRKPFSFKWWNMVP

Columns and labels:
[1] = molecular target: human PAD4 (Peptidylarginine deiminase 4) (human) (UniProt Q9UM07); assay: inferred from inhibition of Ca2+-preactivated human PAD4 (Protocol 2, citrullination of BAEE)
[2] = molecular target: T1, BSA-modified peptide antigen … (SEQ ID NO: 1) (human); assay: ELISA, culture supernatant of CHO cells on immobilised BSA-modified peptide
T1 sequence (peptide, BSA-modified (carrier conjugate) in the ELISA; KLH-modified for immunisation): FFTYHIRHGEVHC

[3] = molecular target: human PAD4 (Peptidylarginine deiminase 4) (human) (UniProt Q9UM07); assay: ELISA, culture supernatant of CHO cells on immobilised full-length recombinant human PAD4

Measured: binding

B1: P1 (antibody, V domains shown)
VH: AVTLDESGGGLQTPGGGLSLICKASGFHMRSYAMNWVRQAPGKGLEFVAGIDNSGRYRNYGAAVKGRATISRDNGQSTVRLQLNNLRAEDTGIYYCAKNFDVGGDGCDWSSGCIDAWGHGTEVIVS
VL: ASTQPSSVSANPGETVKITCSGGSSTYYGWYQQKSPGSAPVTVIYQNTKRPSGLSSRFSGSKSGSTATLTITGVQAEDEAVYFCGGYDTRTYAGIFGAGTTLTVL
notes: Chicken variable regions recombined into mouse chimeric antibody (IgG1) expression vectors; also called anti-PAD4 antibody P1; P1 etc
binds: [1] | [2] | [3]

B2: P4 (antibody, V domains shown)
VH: AVTLDESGGGLQTPGGGLSLICKASGFSMRSYAMNWVRQAPGKGLEFVAGIDNTGRYTGYGSAVKGRATISRDNGQSTVRLQLNNLRAEDTGTYYCAKNVDVAGSGCDWSSGCIDAWGHGTEVTVS
VL: ASTQPSSVSANPGETVKITCSGGSSTYYGWYQQKSPGSAPVTVIYQNTKRPSGLSSRFSGSKSGSTATLTITGVQAEDEAVYFCGGYDTRTYAGIFGAGTTLTVL
notes: Chicken variable regions recombined into mouse chimeric antibody (IgG1) expression vectors; also called anti-PAD4 antibody P4; P1 etc
binds: [1] | [2] | [3]
